{
  "source": "paper doi:10.1101/2025.02.03.636272",
  "target": "T1, VDR-pBIND (vitamin D receptor fused to the GAL4 DNA-binding domain) (human) (UniProt P11473)",
  "T1 sequence": "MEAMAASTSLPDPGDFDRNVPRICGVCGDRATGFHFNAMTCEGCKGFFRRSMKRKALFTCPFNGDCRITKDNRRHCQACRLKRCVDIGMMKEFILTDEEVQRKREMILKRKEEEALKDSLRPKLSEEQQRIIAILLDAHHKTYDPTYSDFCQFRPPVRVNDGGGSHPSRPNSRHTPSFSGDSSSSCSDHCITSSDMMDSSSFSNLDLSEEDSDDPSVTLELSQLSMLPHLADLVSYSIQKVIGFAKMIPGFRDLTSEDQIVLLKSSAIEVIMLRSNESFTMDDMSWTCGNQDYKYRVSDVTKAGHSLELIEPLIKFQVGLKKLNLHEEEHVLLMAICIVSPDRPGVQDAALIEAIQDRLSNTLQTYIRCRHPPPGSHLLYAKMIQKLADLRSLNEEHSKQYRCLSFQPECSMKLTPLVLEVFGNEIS",
  "assay": "two-hybrid",
  "note": "These are yes or no findings as the source states them, for the method shown. A result given as binding can be weak or reduced; the word gives no strength. Where a sequence is shown, tags or fusion partners need not be part of it.",
  "data": [
    {"substance": "RXR-pACT (retinoid X receptor fused to the VP16 activation domain) (human)", "values": [
      {"measurement": "binding", "result": "binds"}
    ]}
  ]
}
